Laboratory results reported in the supplement of paper PMC3334620.
In all, about 33,000 sequences were measured (“E-score (-0.5 to 0.5)”: median about -0.0014, highest 2% from about 0.25 on). The list shows a part of the results.

Target: T1, Cad1 (UniProt P24813)
T1 sequence: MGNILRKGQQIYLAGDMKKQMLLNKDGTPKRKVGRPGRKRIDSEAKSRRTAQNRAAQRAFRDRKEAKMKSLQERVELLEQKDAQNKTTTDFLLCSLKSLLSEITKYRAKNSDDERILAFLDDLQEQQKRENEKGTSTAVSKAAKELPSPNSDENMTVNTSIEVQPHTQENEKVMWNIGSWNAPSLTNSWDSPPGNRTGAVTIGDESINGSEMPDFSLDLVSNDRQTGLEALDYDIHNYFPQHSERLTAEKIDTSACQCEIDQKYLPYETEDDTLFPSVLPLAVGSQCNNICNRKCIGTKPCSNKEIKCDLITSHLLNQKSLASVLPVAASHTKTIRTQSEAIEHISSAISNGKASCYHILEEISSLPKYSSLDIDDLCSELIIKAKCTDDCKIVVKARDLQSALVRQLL
Experiment: PBM E-score (8-mer binding enrichment) (E-score (-0.5 to 0.5)); higher = stronger / more preferred TF binding
Details: protein concentration: 100 nM; construct: GST-full length
Summary of the method: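 Universal all-10-mer Agilent arrays, fresh or stripped once, were converted to double-stranded form by primer extension. GST-tagged yeast transcription factors from PURExpress in vitro transcription/translation, full-length or DNA-binding domain only, were applied at about 100-200 nM and detected with fluorescent anti-GST. After masliner normalisation, the Universal PBM Analysis Suite scored each ungapped eight-base word together with its reverse complement by E-score.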

Row | Sequence | PBM E-score
1 | TCGACTAA | 0.0381
2 | ATTCCTGA | 0.00269
3 | AAATGACA | 0.116
4 | CTGCTACA | 0.0654
5 | CGCGGAGA | 0.234
6 | CCGGGGCC | -0.237
7 | CCCCCCCC | -0.483
8 | TCGAGACA | -0.145
9 | CAAACTTC | 0.106
10 | AGGTACTA | 0.0283
11 | CCCTGGGC | -0.233
12 | CAAGGACC | -0.146
13 | ATCCTCCC | -0.263
14 | AGGCGGGG | -0.0196
15 | CATTACCA | 0.0981
16 | ACGTGTAA | 0.0558
17 | AAGCGCAG | 0.0697
18 | ATTATTTA | 0.234
19 | ATATTCGA | 0.128
20 | TCTCTCCA | -0.192
21 | TCCCAGAA | -0.0764
22 | CCTTACTA | 0.211
23 | ACACTGTA | -0.1
24 | CCCGAATC | -0.144

Three entries from above, comma-delimited.
Row,Sequence,PBM E-score
7,CCCCCCCC,-0.483
8,TCGAGACA,-0.145
9,CAAACTTC,0.106

Further entries.

Row | Sequence | PBM E-score
25 | TCGCCTCA | -0.00571
26 | GTATGCGA | 0.0739
27 | AGCGTACC | -0.0992
28 | ACAGATAA | 0.15
29 | AATCAATC | 0.106
30 | CTCCGTTA | -0.0469
31 | GATGTTAA | 0.0103
32 | GGTCATAA | -0.0218
33 | ACGTCAAG | -0.0113
34 | AAGGCACA | -0.0665
35 | ACCCACTA | 0.107
36 | TAGGGTAA | 0.0651
37 | ACGTGAAA | 0.139
38 | ATCATGAT | 0.211
39 | CGCCATTC | -0.00501
40 | CCTCCCCC | -0.343
41 | AGTGCCCC | -0.176
42 | CATCGAGG | -0.238
43 | GTGCTCAA | 0.0739
44 | AGAAAGTA | 0.0167
45 | GGCGCGAC | 0.0848
46 | CCGTGCAC | 0.213
47 | AAATGCCA | -0.0657
48 | CCCGCAGG | -0.23

Single values from the results shown.
PBM E-score, TCGCCTCA reads -0.00571
PBM E-score, GTATGCGA reads 0.0739
PBM E-score, GATGTTAA reads 0.0103
PBM E-score, GGTCATAA reads -0.0218

(cont.)

Row | Sequence | PBM E-score
49 | TAGTACAA | 0.11
50 | CCCGTGAG | -0.0452
51 | AAAAGCCA | 0.141
52 | CATCGGGG | -0.174
53 | AAAGGCTG | -0.135
54 | CGCACTTA | 0.103
55 | TCGGTACA | -0.0456
56 | ACGTCAGG | -0.0808
57 | CACTTCTA | -0.0605
58 | AAGAACGA | 0.11
59 | CTGATCAC | -0.0445
60 | GCTTGGTA | 0.184
61 | AGGTCCTA | -0.137
62 | GGATGGGA | -0.155
63 | CATGGTAC | 0.0416
64 | CGTGGAAC | 0.0529
65 | ATTGTGGA | -0.0289
66 | ACGTGAAC | -0.114
67 | GACGGGGA | -0.19
68 | CGCGGGCC | 0.211
69 | CAGATGCC | -0.141
70 | CCATTCAG | 0.136
71 | CACTACAG | 0.0204
72 | CGGAGTAC | -0.167

Row | Sequence | PBM E-score
73 | GGTAACCA | -0.117
74 | ATGTAGTC | 0.0234
75 | GCTTTGAA | 0.108
76 | TGATCCCA | -0.042
77 | GCCCTTCC | -0.221
78 | CAATTTGC | 0.0647
79 | AAGCGTTA | -0.0772
80 | ATTTAGAG | 0.0426
81 | ACCTCAGT | -0.0777
82 | AGTGAGTC | -0.0203
83 | AACTGTCT | -0.015
84 | CCGTTTAG | 0.00061
85 | ATGGTGGA | -0.14
86 | CCTCAAAG | -0.171
87 | AGGGTCGA | 0.0333
88 | AGCAGTGA | 0.163
89 | GCTGGTCA | -0.00985
90 | ATATGCAG | 0.105
91 | ACGCTAAC | 0.0893
92 | GCGACCGC | 0.0307
93 | ATGCCGGC | 0.089
94 | GTGCTGGA | -0.106
